Experimental data published in PubChem BioAssay AID504444 (National Center for Advancing Translational Sciences (NCATS), 2011).
Several values for one entry are separate records, joined by “and”; a condition that tells them apart may be missing. Identical values can stand only once. Hit rate of the full screen: of about 360,000 compounds, about 7,500 (2.1%) were called active. The shares of active, inactive and inconclusive entries below differ from those in the screen. Calls come from the whole dose curve; as a rule, active = well fitted inhibition curve with a large enough effect; inconclusive = small, poorly fitted or top-dose-only effect, or effect the other way; inactive = flat fitted curve, though single readings scatter. Where the call is inconclusive, the potency comes from a doubtful curve fit.

assay: Nrf2 qHTS screen for inhibitors; settings: A549 ARE-Fluc reporter, luciferase luminescence, 18-24 h; activity change, negative = inhibition: at 46 µM (top of the series); note: nearly all actives have a fitted effect of over 60% in size
How it was run: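 A549 ARE_Fluc cells (5000/well, 5% FBS OPTI-MEM) pre-incubated 2 h, then treated with compounds 18-24 h at 37C/5% CO2 in concentration-response. CellTiter-Fluor viability read first; BugLite luciferase luminescence after 15 min at room temperature gives Nrf2 activity.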
% is set by controls: 0 for no effect and ±100 for the full control effect; potency is the fitted concentration of half-maximal effect.

Structure (SMILES)	Potency	activity change, negative = inhibition
CC12CCC(=O)N1C(C(=O)Nc1nc(-c3ccccc3Cl)cs1)CS2 (configuration not stated)	inconclusive: 32.6 µM [falling, single point]	–
COc1ccc(CNC(=O)Cn2nc(C)n3cccc3c2=O)cc1	inconclusive: 18.4 µM [activator, partial curve]	–
O=C(Nc1cc2c(cc1Cl)-c1ccc([N+](=O)[O-])cc1C2=NO)C(F)(F)F	–	inactive: 4.44%
NC(=O)c1cc(S(=O)(=O)Nc2ccc(OC(F)(F)F)cc2)cs1	active: 18.4 µM	–
Cc1ccc(C(=O)Nc2ccc3c(c2)CCC3)cc1	inconclusive: 0.517 µM [activator, partial curve]	–
COc1ccc(S(=O)(=O)N2CCC(c3nc4ccccc4[nH]3)CC2)cc1	inconclusive: 29.1 µM [activator, single point]	–
COc1ccc(CNC(=O)c2cc3c(-c4ccc(Cl)cc4)nn(C)c3s2)cc1	–	inactive: -10.5%
OC(CN1c2ccccc2Sc2ccccc21)Cn1nnc2ccccc21 (configuration not stated)	–	inactive: -26.7%
Cn1c(=O)n(C)c2cc(NS(=O)(=O)c3ccc(F)cc3)c(NCc3ccccc3)cc21	inconclusive: 5.8 µM [falling, partial curve, poor fit]	–
Cc1cccc([C@@H]2[C@@H]3C(=O)N(Cc4ccccc4)C(=O)[C@@H]3[C@]3(Cc4ccccc4)C(=O)N(c4ccccc4)C(=O)N23)c1	inconclusive: 14.6 µM [activator, partial curve]	–
FC(F)(F)c1ccccc1-n1c(-c2cnccn2)n[nH]c1=S	inconclusive: 29.1 µM [activator, single point]	–
CCN(Cc1ccccc1)c1ccc(Br)cn1	–	inactive: 23.3%
CC1CCN(S(=O)(=O)c2ccc3c(c2)N(CC(=O)NCCN2C(C)CCCC2C)C(=O)CS3)CC1 (configuration not stated)	–	inactive: 4.74%
COc1ccc(C(=O)NCCn2cc(SCc3cccc(F)c3)c3ccccc32)cc1OC	active: 23.1 µM	–
C/C(=N\NC(=O)c1ccncc1)c1cccc(NC(=O)c2ccc(C(C)(C)C)cc2)c1	inconclusive: 20.6 µM [falling, single point]	–
C#CCn1c(C)cc(C)c(S(=O)(=O)c2ccccc2)c1=O	inconclusive: 8.2 µM [activator, partial curve]	–
O=C(CSc1nc(-c2cccs2)nc2cc(=O)[nH]n12)Nc1ccccc1	inconclusive: 9.2 µM [falling, partial curve, poor fit]	–
CN(C)c1cc(-c2ccc(Cl)cc2Cl)oc(=O)c1Cl	–	inactive: 20.1%
Cc1c(C(=O)C(=O)N2CCN(C)CC2)c2ccccc2n1C	–	inactive: -2.79%
Cc1nn(-c2ccc(N3CCCCC3)nn2)c(C)c1CCC(=O)NCc1ccc(F)cc1	–	inactive: -5.58%
Cc1ccc([N+](=O)[O-])c(OCCCN2C(=O)NC(C)(C)C2=O)c1	inconclusive: 23.1 µM [activator, single point]	–
CC(=O)Nc1cc2cc(NS(=O)(=O)c3ccc(C)cc3)ccc2oc1=O	inconclusive: 0.092 µM [activator, full curve]	–
COc1ccc(/C=N/NC(=O)c2ccc(O)cc2)cc1CN1CCCc2ccccc21	inconclusive: 0.184 µM [falling, full curve, poor fit]	–

Structure (SMILES)	Potency	activity change, negative = inhibition
COc1cc2ccccc2cc1C(=O)OCC(=O)N(CC(C)C)c1c(N)n(Cc2ccccc2)c(=O)[nH]c1=O	–	inactive: -13%
Cc1cc(Cl)cc(Br)c1OCCNCC(C)O (configuration not stated)	inconclusive: 1.3 µM [activator, partial curve, poor fit]	–
CCOc1ccccc1-c1nc(-c2ccc(C)nc2OC)no1	inconclusive: 25.9 µM [activator, single point]	–
O=C(/C=C/c1cccc(Cl)c1)N1CCC(Cc2ccccc2)CC1	inconclusive: 16.4 µM [activator, partial curve, poor fit]	–
Cc1ccc(-c2c(CN3CCN(c4cc(C)ccc4C)CC3)csc2C)cc1	inconclusive: 29.1 µM [activator, single point]	–
COc1ccccc1NC(=O)CN1CCC(c2nc3ccccc3[nH]2)CC1	inconclusive: 32.6 µM [falling, single point]	–
CCOc1ccccc1-c1nc(CN2CCN(C(=O)c3ccco3)CC2)c(C)o1	–	inactive: -0.671%
COc1cc(C(CCN2CCN(c3ccccc3)CC2)c2c(OC)cc(OC)c3ccc(=O)oc23)cc(OC)c1OC (configuration not stated)	inconclusive: 23.1 µM [activator, single point]	–
Cc1ccc(S(=O)(=O)/N=C2/NC(=O)/C(=C/c3ccc(Br)o3)S2)cc1	inconclusive: 20.6 µM [falling, partial curve, poor fit]	–
Cc1cc(C)c(C#N)c(N2CCCC2)n1	–	inactive: 21.6%
Cc1ccc(C(=O)Nc2ncc(Cc3ccc(F)cc3)s2)o1	inconclusive: 9.2 µM [activator, partial curve]	–
CCCc1nc(SCC(=O)c2ccc(F)cc2)c2ccccc2n1	inconclusive: 8.2 µM [falling, partial curve, poor fit]	–
CCn1c2ccccc2c2cc(NC(=O)c3ccco3)ccc21	active: 20.6 µM	–
COc1ccccc1C(=O)NC(=S)NNC(=O)c1sc2ccccc2c1Cl	inconclusive: 6.51 µM [falling, single point]	–
CC(NC(=O)Nc1ccc2c(c1)OCO2)C1CCCO1 (configuration not stated)	inconclusive: 10.3 µM [activator, partial curve]	–
COc1cc(/C=C2\SC(=S)N(CCC(=O)N3CCCCC3)C2=O)cc(OC)c1OC	inconclusive: 20.6 µM [activator, partial curve]	–
Clc1ccc2nnnc(-c3ccccc3)c2c1	inconclusive: 29.1 µM [falling, single point]	–
O=C1NC(=O)/C(=C\c2ccc(Oc3ccc([N+](=O)[O-])cn3)cc2)S1	inconclusive: 1.64 µM [falling, partial curve, poor fit]	–
Cc1cc(C)c(S(=O)(=O)N(CC(=O)N2CCOCC2)C2CCCCC2)c(C)c1	inconclusive: 0.0046 µM [falling, full curve, poor fit]	–
COc1ccccc1CCNC(=O)C(=O)NCC1OCCCN1S(=O)(=O)c1ccc(F)cc1C (configuration not stated)	inconclusive: 20.6 µM [falling, single point]	–
COc1ccc(C2C3C=CCC(c4cccc(-c5ccc(C)cc5)c4)C3C(=O)N2Cc2ccccc2)cc1Cl (configuration not stated)	inactive	–
COc1ccc(-c2cn3c(n2)sc2cc(C(=O)Nc4ccc(C)c(Cl)c4)ccc23)cc1	inconclusive: 25.9 µM [falling, single point]	–
CCOC(=O)c1[nH]c2c(c1Cc1ccccc1C)C(=O)CC(c1ccccc1)C2 (configuration not stated)	inconclusive: 18.4 µM [falling, partial curve]	–

Structure (SMILES)	Potency	activity change, negative = inhibition
Cc1cc(C)c(C)c(S(=O)(=O)N2CCN(c3ncnc4ccccc34)CC2)c1C	active: 9.2 µM	–
COc1ccc(C2/C=C\CN(C(=O)Nc3ccccc3-c3ccccc3)CC(=O)N2Cc2ccc(F)cc2)cc1 (configuration not stated)	inconclusive: 29.1 µM [falling, single point] and inconclusive: 20.6 µM [falling, single point]	–
COc1cc(CNCCCCO)ccc1OCc1ccccc1F	inconclusive: 9.2 µM [activator, partial curve]	–
Cc1ccc(S(=O)(=O)c2c(CO)c(-c3ccccc3)nn2C)cc1	inconclusive: 16.4 µM [falling, partial curve, poor fit]	–
CC1=C(c2ccc(C(C)C)cc2)S(=O)(=O)N=C1N1CCC(C(=O)Nc2ccc(C)cc2)CC1	inconclusive: 16.4 µM [falling, single point]	–
O=C(CSc1nc2ccccc2s1)Nc1cc(S(=O)(=O)N2CCOCC2)ccc1O	–	inactive: 11.8%
O=C(O)c1cccc2c1/C(=N/Nc1ccc([N+](=O)[O-])cc1[N+](=O)[O-])c1ccccc1-2	–	inactive: -3.83%
Nc1c(C(=O)Nc2ccc3c(c2)OCCO3)nnn1Cc1cccc(Cl)c1	inconclusive: 3.26 µM [activator, single point]	–
Cc1c(C(=O)NCc2ccc3c(c2)OCO3)oc2ccc(S(=O)(=O)N3CCCCCC3)cc12	inconclusive: 20.6 µM [falling, single point]	–
CCC(=O)Nc1ccc(C(=O)OCc2ccccc2Cl)cc1	–	inactive: 2.14%
CC(=O)Oc1ccc(-c2cc3ccccc3oc2=O)cc1	–	inactive: 16.7%
Cc1cc(NC(=O)NN2CCOCC2)nn1-c1c(Cl)cc(Cl)cc1Cl	inconclusive: 4.11 µM [activator, full curve, poor fit]	–
COc1ccc(S(=O)(=O)CCc2nnc(NC(C)=O)s2)cc1	inconclusive: 23.1 µM [falling, single point]	–
CCc1ccc(NC(=O)c2cnn(-c3c(C)cccc3C)c2C2CCN(C(=O)OC(C)(C)C)CC2)cc1	inconclusive: 18.4 µM [falling, single point]	–
Cc1cccc(S(=O)(=O)NCCc2ccccc2)c1	inconclusive: 20.6 µM [falling, partial curve, poor fit]	–
CCCn1c(=O)c(C#N)cn(C2CC2)c1=O	inconclusive: 0.0046 µM [activator, full curve, poor fit]	–
CCn1c(C(=O)NCc2ccccc2Cl)cc2sc(Cl)cc21	inconclusive: 29.1 µM [activator, single point]	–
Nc1nc(-c2ccc3c(c2)CCO3)cs1	inconclusive: 13 µM [activator, partial curve]	–
CN(C)c1cccc2c1C(=O)c1ccccc1C2=O	–	inactive: -14.4%
COc1ccc(Nc2nc3nonc3nc2N2CCCCC2)cc1	active: 25.9 µM	–
CCOC(=O)C1CCCCN1Cc1cccc(Oc2ccccc2)c1 (configuration not stated)	inconclusive: 0.116 µM [falling, full curve, poor fit]	–
